# No constants are given. Whether binding was seen depends on the method and setting. Binding seen in cells or lysates may run through a third protein. These calls come from enrichment with a bait or labelling near it, and not all partners need be listed.
# Molecular target: T1, germline nuclear Argonaute HRDE-1 (C. elegans) (UniProt Q09249)
# T1 sequence: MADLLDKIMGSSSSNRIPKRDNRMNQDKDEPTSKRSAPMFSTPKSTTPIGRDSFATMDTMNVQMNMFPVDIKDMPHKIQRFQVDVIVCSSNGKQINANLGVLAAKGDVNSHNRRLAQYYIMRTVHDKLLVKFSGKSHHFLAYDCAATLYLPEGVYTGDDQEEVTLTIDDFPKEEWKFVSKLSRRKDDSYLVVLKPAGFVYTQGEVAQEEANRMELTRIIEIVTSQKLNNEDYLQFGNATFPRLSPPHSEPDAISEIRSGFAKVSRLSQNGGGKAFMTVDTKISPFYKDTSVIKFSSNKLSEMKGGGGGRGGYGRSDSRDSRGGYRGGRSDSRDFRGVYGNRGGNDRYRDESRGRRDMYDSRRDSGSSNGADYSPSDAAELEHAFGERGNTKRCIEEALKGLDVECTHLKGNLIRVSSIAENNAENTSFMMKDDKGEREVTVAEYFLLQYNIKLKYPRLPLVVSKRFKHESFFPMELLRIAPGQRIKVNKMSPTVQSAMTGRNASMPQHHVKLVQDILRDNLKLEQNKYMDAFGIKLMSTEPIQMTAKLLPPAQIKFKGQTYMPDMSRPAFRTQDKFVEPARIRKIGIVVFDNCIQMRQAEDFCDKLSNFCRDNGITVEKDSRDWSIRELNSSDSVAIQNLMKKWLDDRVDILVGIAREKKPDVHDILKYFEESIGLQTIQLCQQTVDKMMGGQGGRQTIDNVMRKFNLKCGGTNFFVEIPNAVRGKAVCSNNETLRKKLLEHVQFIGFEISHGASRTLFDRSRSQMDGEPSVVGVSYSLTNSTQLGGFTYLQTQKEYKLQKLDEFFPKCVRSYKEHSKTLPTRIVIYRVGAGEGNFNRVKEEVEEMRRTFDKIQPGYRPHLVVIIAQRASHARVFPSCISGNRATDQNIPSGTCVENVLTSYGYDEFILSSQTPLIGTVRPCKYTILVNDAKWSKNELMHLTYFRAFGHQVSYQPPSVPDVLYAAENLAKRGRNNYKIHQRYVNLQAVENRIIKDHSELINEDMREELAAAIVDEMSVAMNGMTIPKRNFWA
# Experiment: affinity purification with mass spectrometry; SILAC IP: anti-HRDE-1 antibody coupled to dynabeads M270, lysates of heavy labelled wild-type and hrde-1(tm1200) mutant young adults, 1 hr at 4°C, washes with 300 mM NaCl, LC-MS/MS, three biological replicates
row,binding,Substance
1,binds,ALY
2,binds,RNA helicase Aquarius/EMB-4 (C. elegans)
3,binds,eIF4A3

# Source: publication PMC5554785
